{
  "sequences": {"note": "Amino acid sequences for entries named in this document (tags omitted).", "UniProt Q0JBA9, entry or part of it": "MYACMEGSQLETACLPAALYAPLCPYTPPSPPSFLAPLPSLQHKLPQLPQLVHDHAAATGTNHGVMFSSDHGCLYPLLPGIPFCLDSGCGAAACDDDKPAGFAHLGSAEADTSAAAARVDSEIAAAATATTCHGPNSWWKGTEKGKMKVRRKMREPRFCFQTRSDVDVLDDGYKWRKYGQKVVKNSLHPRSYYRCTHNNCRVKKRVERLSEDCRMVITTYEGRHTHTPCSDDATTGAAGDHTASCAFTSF"},
  "source": "paper PMC7819943",
  "about": "“Rice protein-binding microarrays: a tool to detect cis-acting elements near promoter regions in rice”",
  "note": "The list shows a part of the results.",
  "data": [
    {"target": "OsWRKY34 (Oryza sativa, UniProt Q0JBA9 1-250)", "test": "protein-binding microarray (RPBM); PBS, 2% BSA, 51.3 ng/ul salmon testes DNA, 50 uM zinc acetate, 200 nM TF, 25 C, 1 h; high values mean tight binding", "settings": "protein: recombinant; tags: N-terminal polyhistidine and DsRed monomer fusion (pET32a); label: CyDye5-dUTP incorporated in the synthesized complementary strand; 3' TTTTT single-stranded linker to array surface; dsDNA, one strand shown", "summary_of_the_method": "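Ni–NTA purification followed expression in E. coli BL21-CodonPlus of transcription factors fused N-terminally to a polyhistidine tag and DsRed. At 200 nM in PBS with 2% BSA, salmon testes DNA and 50 µM zinc acetate, the protein was incubated for 1 h at 25 °C with a custom Agilent array that had been primer-extended with Cy5-dUTP and blocked with 2% BSA. After washing, the array was read on an Axon 4000B scanner. The binding signal is per-feature fluorescence intensity in arbitrary units.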", "values": [
      {"sequence": "TGCTGCTTTGCTCAATTGCTCTTTGATATTGTTGTTTGTACGGAGTCACCTAGTGCAG", "binding signal": "8150 fluorescence intensity (a.u.)"},
      {"sequence": "CCTCGCCGGTCGCCTCTCTCATCTCCGCACTCTCCGATCTCGGAGTCACCTAGTGCAG", "binding signal": "8360 fluorescence intensity (a.u.)"},
      {"sequence": "CTGCCCTGCTCCACTCCGTCGGCCGCCGTCCTCGCCATCTCGGAGTCACCTAGTGCAG", "binding signal": "11800 fluorescence intensity (a.u.)"},
      {"sequence": "CCCAGCCCACTCGACACCCACCGAATCCACGCCGCTCAATCGGAGTCACCTAGTGCAG", "binding signal": "8600 fluorescence intensity (a.u.)"},
      {"sequence": "CGGTTTTGTGGTTTAGGGCCATGAATTAGATTTCAGTCACCGGAGTCACCTAGTGCAG", "binding signal": "9860 fluorescence intensity (a.u.)"},
      {"sequence": "TAATGTACCTTAGCTTGCTCTATTTTACTTTATTTTTAACCGGAGTCACCTAGTGCAG", "binding signal": "8070 fluorescence intensity (a.u.)"},
      {"sequence": "TCAGCCCGCGGCCGTCCTTCTTCTTCCCCACCGCCGCGGCCGGAGTCACCTAGTGCAG", "binding signal": "8290 fluorescence intensity (a.u.)"},
      {"sequence": "GCTTTTCTTGTATTCCATCCCACGTAGTTTTCCTGTATTTCGGAGTCACCTAGTGCAG", "binding signal": "12200 fluorescence intensity (a.u.)"},
      {"sequence": "TGGTTTGTTCCCGTCGGATTTTTCTTTTCCACTGTTCGATCGGAGTCACCTAGTGCAG", "binding signal": "13000 fluorescence intensity (a.u.)"},
      {"sequence": "CGTGACTTAGGTTTTAAAACTTTTTCATAAATTTTTCTGTCGGAGTCACCTAGTGCAG", "binding signal": "9410 fluorescence intensity (a.u.)"},
      {"sequence": "GTTTCTATTCACAACGTACACTGTATTGCCCCTATGACATCGGAGTCACCTAGTGCAG", "binding signal": "8550 fluorescence intensity (a.u.)"},
      {"sequence": "TCCCTCCGTTTCAGGTTACAAGACGTTTTGACTTTGATGACGGAGTCACCTAGTGCAG", "binding signal": "8900 fluorescence intensity (a.u.)"},
      {"sequence": "TTCTTATTTATCTTCTTGATATGTGCTTACGGTTGACTTACGGAGTCACCTAGTGCAG", "binding signal": "11100 fluorescence intensity (a.u.)"},
      {"sequence": "CCTCCGTTTCACAATATAAGTCGTTCTAGCATCAATATGACGGAGTCACCTAGTGCAG", "binding signal": "8580 fluorescence intensity (a.u.)"},
      {"sequence": "CCCCATCGCCGAATCCGCCGCCGCCATCCCCACCACGGGACGGAGTCACCTAGTGCAG", "binding signal": "8070 fluorescence intensity (a.u.)"},
      {"sequence": "CCACCTCGCACCGTCGATCTCCTCCCCACCCGTCGGCCGGCGGAGTCACCTAGTGCAG", "binding signal": "8520 fluorescence intensity (a.u.)"},
      {"sequence": "ACATCTTATCTTCTTCTTCTTCTTCTTCTTCTTCTTCTTCCGGAGTCACCTAGTGCAG", "binding signal": "9650 fluorescence intensity (a.u.)"},
      {"sequence": "TCGAGGAGTGGATGGACGGATGGGTGGGTCATCACTGGTCCGGAGTCACCTAGTGCAG", "binding signal": "8840 fluorescence intensity (a.u.)"},
      {"sequence": "GTACTATTTGGCTCAACTGCAACTGCACGTACTATATTCACGGAGTCACCTAGTGCAG", "binding signal": "15200 fluorescence intensity (a.u.)"},
      {"sequence": "ACCACCAAACTAGTCTTGTTCTCTCCTCTCTCTCTCTCTCCGGAGTCACCTAGTGCAG", "binding signal": "8580 fluorescence intensity (a.u.)"},
      {"sequence": "GGATTCAACTACGATTCCACGACTTGTTATATTCAACTACCGGAGTCACCTAGTGCAG", "binding signal": "8110 fluorescence intensity (a.u.)"},
      {"sequence": "ACGTTGCTCGCTGCGTCGCTGTCCCGTTTCGACGGTTTTTCGGAGTCACCTAGTGCAG", "binding signal": "10200 fluorescence intensity (a.u.)"},
      {"sequence": "ACAGCCTATTTATGTACTTGAATTCCTGCAGACTGTCCAACGGAGTCACCTAGTGCAG", "binding signal": "8380 fluorescence intensity (a.u.)"},
      {"sequence": "ACGTAATTAAGAGTGAATTAATTCTACATGTATCTATCAACGGAGTCACCTAGTGCAG", "binding signal": "8710 fluorescence intensity (a.u.)"},
      {"sequence": "TGCTCTCTCTCTCTCTCTCTCTCTCTCGGCACCACGGACACGGAGTCACCTAGTGCAG", "binding signal": "11700 fluorescence intensity (a.u.)"},
      {"sequence": "AAACTATTTTTCTCCTCTTTTACATGCCGGTGATTTAGAACGGAGTCACCTAGTGCAG", "binding signal": "8630 fluorescence intensity (a.u.)"},
      {"sequence": "AAGGCCCCAAATTATTCGCTCATACATATTCCTGTTCAAACGGAGTCACCTAGTGCAG", "binding signal": "8390 fluorescence intensity (a.u.)"},
      {"sequence": "ATTCTGTATTTATTGTTTGCTGCATTCAGTTTGATTGGTTCGGAGTCACCTAGTGCAG", "binding signal": "13900 fluorescence intensity (a.u.)"},
      {"sequence": "CTTGATTTTTTTCTTCTTCTGTTTTTGTTCTTGATTGATTCGGAGTCACCTAGTGCAG", "binding signal": "14200 fluorescence intensity (a.u.)"},
      {"sequence": "GTCTTTTCACCCCATGAGCTCCTTTGAATCCCATGAATTTCGGAGTCACCTAGTGCAG", "binding signal": "9830 fluorescence intensity (a.u.)"},
      {"sequence": "ATACCATTCTACCATAGTTCCAGATTTTTCTGCTCACAAACGGAGTCACCTAGTGCAG", "binding signal": "8720 fluorescence intensity (a.u.)"},
      {"sequence": "TATACACCGGTTTATCATTACACCATATTTCCTCCGTCCTCGGAGTCACCTAGTGCAG", "binding signal": "8840 fluorescence intensity (a.u.)"},
      {"sequence": "CTCTCCTTTTTTTTGGCCGTTGGTTGGGTAATTGAACGGCCGGAGTCACCTAGTGCAG", "binding signal": "8330 fluorescence intensity (a.u.)"},
      {"sequence": "TCACTTTTCAACCAATCCCAATCTTTCACCATTTAATTATCGGAGTCACCTAGTGCAG", "binding signal": "8420 fluorescence intensity (a.u.)"},
      {"sequence": "ACTATTCTATTATGATGATTAGGCTGTTATTGGTTGAAGTCGGAGTCACCTAGTGCAG", "binding signal": "9550 fluorescence intensity (a.u.)"},
      {"sequence": "CATAATATTTTCCTCCTATCTGTTCAGCTTCCATTTTTCCCGGAGTCACCTAGTGCAG", "binding signal": "9080 fluorescence intensity (a.u.)"},
      {"sequence": "GACCATACTCGCCTCAACCATTGAACGTGCCCTAATATGCCGGAGTCACCTAGTGCAG", "binding signal": "10300 fluorescence intensity (a.u.)"},
      {"sequence": "TGGACAACATATGTCACAACCTCTTACCTATCTCTCTCTTCGGAGTCACCTAGTGCAG", "binding signal": "9970 fluorescence intensity (a.u.)"},
      {"sequence": "ACTTCTGTCCTTGCTCCGGCCGCCGCTGCCGCCAGCCATGCGGAGTCACCTAGTGCAG", "binding signal": "9090 fluorescence intensity (a.u.)"},
      {"sequence": "CACGTTTTTTTTCTATCCGTATTTTTTTTCAGTTTTTTCGCGGAGTCACCTAGTGCAG", "binding signal": "8910 fluorescence intensity (a.u.)"},
      {"sequence": "GTGGAATCAAGGGTCGGGATGGCGGAAGGGTTGAGGAGTACGGAGTCACCTAGTGCAG", "binding signal": "11700 fluorescence intensity (a.u.)"},
      {"sequence": "CTCGCCTCATCCAGCATCAAATCGATACCAACATCGCCGGCGGAGTCACCTAGTGCAG", "binding signal": "9060 fluorescence intensity (a.u.)"},
      {"sequence": "AATCCATTGTTCATCGTCTCCCTCACCGGCGTTTGTGTTCCGGAGTCACCTAGTGCAG", "binding signal": "8720 fluorescence intensity (a.u.)"},
      {"sequence": "TCACCAGATCTGAGATCTCTTCTTTCGCATGGCACCTCAACGGAGTCACCTAGTGCAG", "binding signal": "8590 fluorescence intensity (a.u.)"},
      {"sequence": "TACTTGGACTTTCCTTTTATTTTTTTTCTTTTTCTCCGATCGGAGTCACCTAGTGCAG", "binding signal": "8410 fluorescence intensity (a.u.)"},
      {"sequence": "GTTGGTGGTCGTTGGATCCTATAATTGGCATAGTATATTCCGGAGTCACCTAGTGCAG", "binding signal": "8150 fluorescence intensity (a.u.)"},
      {"sequence": "CCTTACTCCTCGTCTGCAGCCGCCAACACGTACGATTACACGGAGTCACCTAGTGCAG", "binding signal": "12000 fluorescence intensity (a.u.)"},
      {"sequence": "TTTCTTACACTAAAATTGGTTCGAATATCGTGCGTCCGGCCGGAGTCACCTAGTGCAG", "binding signal": "8440 fluorescence intensity (a.u.)"},
      {"sequence": "GTTATTCATCAGGAATTCTGTGGCATGTTTGATTAGTTACCGGAGTCACCTAGTGCAG", "binding signal": "9000 fluorescence intensity (a.u.)"},
      {"sequence": "GCACCTGTCAACTCTTTTTCTCTTTAACCACATCTTATTTCGGAGTCACCTAGTGCAG", "binding signal": "8520 fluorescence intensity (a.u.)"},
      {"sequence": "TTGATATACCTGTCAGCATGCAGCATGCTATCTCAGTCTTCGGAGTCACCTAGTGCAG", "binding signal": "9210 fluorescence intensity (a.u.)"},
      {"sequence": "TTAGCACCAGCTTTGACAATTGTGCCCTGATTCTTGTTACCGGAGTCACCTAGTGCAG", "binding signal": "9000 fluorescence intensity (a.u.)"},
      {"sequence": "AGGTGTAATAGTATTTTGTTGTCTAATTGGTTTTGATTGTCGGAGTCACCTAGTGCAG", "binding signal": "11400 fluorescence intensity (a.u.)"},
      {"sequence": "TATTACGCGACACTACCCCTCTCCTCTTTCGTTTCTTTCCCGGAGTCACCTAGTGCAG", "binding signal": "8430 fluorescence intensity (a.u.)"}
    ]}
  ]
}
